# Measured values from PubChem BioAssay AID588463 (National Center for Advancing Translational Sciences (NCATS), 2011).
# In all, about 1,200 compounds went through this assay and about 15 (1%) were called active. Inconclusive results (about 7%) are left out. Calls come from the whole dose curve; as a rule, active = well fitted activation curve with a large enough effect; inconclusive = small, poorly fitted or top-dose-only effect; inactive = flat fitted curve, though single readings scatter. The list shows a part of the results.
# Target: Beta-2 adrenergic receptor (Homo sapiens) (UniProt P07550)
# Experiment: qHTS assay of beta-arrestin-biased ligands of beta2-adrenergic receptor: Hit Validation;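 note: plate controls were DMSO for no effect and maximal isoproterenol or metaproterenol response for full effect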
# Details: cell-based beta-arrestin recruitment to beta2AR; at 46.1 µM (top of the series)
# Source text: The concept of biased agonism is an emerging concept of molecular pharmacology which proposes that seven transmembrane receptors (7TMRs) or G protein-coupled receptors (GPCRs), exist in multiple signaling conformations and complexes and that ligands (either agonists or antagonists) can induce signaling biased responses for distinct signal transduction cascades.
# Furthermore, accumulating evidence over the last decade has drawn attention to a novel function of beta-arrestins as signal transducers that scaffold various signaling molecules upon activation of 7TMRs. […] This beta-arrestin-biased signaling presumably leads to distinct physiological outcomes from those by G protein activation.
# Additionally, the active receptor conformations which […] on this beta-arrestin signaling are likely different from those activating G protein signaling
# The goal of this screening project will be to discover and optimize novel beta-arrestin-biased ligands for beta2-AR signaling. A luminescent cell-based assay for beta2-AR-mediated agonism, known as the Tango assay, has been validated in which ligand binding of a recombinant beta2-AR and subsequent recruitment of a recombinant beta-arrestin lead to the release of the transcriptional activator tTA, which upregulates transcription of a tTA-responsive luciferase gene.
# NIH Molecular Libraries Probe Production Network [MLPCN]
# NIH Chemical Genomics Center [NCGC]
# PI: Bryan Roth (UNC) and Bob Lefkowitz (Duke)
# NCGC Assay Protocol Summary:
# Tango cells were dispensed into white, solid, tissue-culture-treated 1536-well plates at 1500 cells/well in DMEM, containing 1% fetal bovine serum (FBS). Then, 23 nL of compounds or DMSO were delivered to each well using a pin tool. Plates were incubated at 37 degrees C, 5% CO2 for 18 hr. Then 2.5 uL luminescent substrate mix (in-house prepared: 150 mM Tris-Cl, pH 7.6, 3 mM MgCl2, 1% Triton X-100, 5 mM DTT, 0.5 mM CoA, 0.15 mM ATP, 0.44 mM D-luciferin, final concentrations) was added to each well. Plates were then incubated for 15 minutes at room temperature, and subsequently measured on a ViewLux plate reader for luminescent signal using a clear filter with a 10 second exposure and 2x binning. The %Activity was determined from the corrected luminescence values.
# Concentration-response curves were fitted to the signals arising from the resulting luminescence. The concentration-effect curves were then classified based on curve quality (r2), response magnitude and degree of measured activity, and compounds were subsequently categorized based on their curve class.
# Keywords: biased agonism, beta2-AR, beta-arrestin, GPCR, 7TMR, Tango, luminescence, MLSMR, MLPCN, NIH Roadmap, qHTS, NCGC
row,Structure (SMILES),activation
1,Clc1ccc2c(c1)C(c1ccccc1Cl)=NCc1nnc(N3CCN(CCOc4ccccc4)CC3)n1-2,inactive: -1.81%
2,COC(=O)C1=C(c2ccc(OCc3ccccc3)cc2)C[C@@H]2CC[C@H]1N2C(=O)NCc1cccc(C(F)(F)F)c1,inactive: 8.26%
3,O=C1NC(=O)N(Cc2ccc(F)cc2)C(=O)/C1=C\C=C\c1ccco1,inactive: -3.42%
4,COc1cccc(C(=O)C2CCCN(Cc3cccc(C)n3)C2)c1 (stereo not drawn),inactive: -1.28%
5,S=C=Nc1cccc(C2(N3CCCCC3)CCCCC2)c1,inactive: 4.58%
6,c1cncc(C2Nc3cccc4cccc(c34)N2)c1,inactive: -3.29%
7,COC(=O)C1=C(c2ccc(-c3ccccc3)c(F)c2)C[C@@H]2CC[C@H]1N2C(=O)NCCOc1ccc(OC)cc1,inactive: 6.35%
8,COC(=O)C1=C(c2ccc(-c3ccccc3)c(F)c2)C[C@@H]2CC[C@H]1N2C(=O)NCc1ccco1,inactive: 6.91%
9,CC(=O)c1ccc2c(c1)C1C(Cl)C(Sc3ccccc3[N+](=O)[O-])CC1C(c1ccccc1)N2 (stereo not drawn),inactive: -3.37%
10,COC(=O)OCC12CCC(O1)C1(C)C(=O)OCC21 (stereo not drawn),inactive: -3.25%
11,COC(=O)C1=C(c2ccc(OC)c(OC)c2)C[C@@H]2CC[C@H]1N2C(=O)NCc1cccc2ccccc12,inactive: 8.39%
12,Cc1ccc(N2C(=O)NC(=O)/C(=C/C=C/c3ccco3)C2=O)cc1,inactive: -2.96%
13,CCCCn1c(=O)c(C(=O)NCc2ccncc2)c(O)c2ccccc21,inactive: 0.0024%
14,OC12ONC(c3ccccn3)C1N1CCC2CC1 (stereo not drawn),inactive: -3.98%
15,C[C@]12CC[C@H](O)CC1=CC(=O)C1C2CC[C@]2(C)C(=O)[C@H](O)CC12 (stereo partly drawn),inactive: -2.33%
16,O=C1NC(=O)N(Cc2ccccc2)C(=O)/C1=C/C=C/c1ccco1,inactive: -3.42%
17,COC(=O)C1=C(c2ccc(F)cc2F)C[C@@H]2CC[C@H]1N2C(=O)NCCNC(C)=O,inactive: -3.3%
18,Cc1cc(C)cc(N2C(=O)NC(=O)/C(=C\C=C\c3ccco3)C2=O)c1,inactive: -5.11%
19,O=c1c2ccccc2nc(/C=C/c2ccc(O)c(O)c2)n1-c1ccccc1,inactive: 4.46%
20,N#Cc1c(Cl)nc(Cl)c2c1CCN(Cc1ccccc1)C2,inactive: -2.03%
21,CN1CCN(C(=O)COc2ccc(S(=O)(=O)Nc3ccc(F)cc3)cc2)CC1,inactive: -1.99%
22,COc1cccc(OCc2cc(C(=O)N3C[C@H]4C[C@@H](C3)c3cccc(=O)n3C4)no2)c1,inactive: -4.83%
23,O=C(NCCCN1CCOCC1)C(Cl)(Cl)Cl,inactive: -1.68%

# Laid out differently: 6 of the compounds above.
row	Structure (SMILES)	activation
5	S=C=Nc1cccc(C2(N3CCCCC3)CCCCC2)c1	inactive: 4.58%
6	c1cncc(C2Nc3cccc4cccc(c34)N2)c1	inactive: -3.29%
7	COC(=O)C1=C(c2ccc(-c3ccccc3)c(F)c2)C[C@@H]2CC[C@H]1N2C(=O)NCCOc1ccc(OC)cc1	inactive: 6.35%
8	COC(=O)C1=C(c2ccc(-c3ccccc3)c(F)c2)C[C@@H]2CC[C@H]1N2C(=O)NCc1ccco1	inactive: 6.91%
9	CC(=O)c1ccc2c(c1)C1C(Cl)C(Sc3ccccc3[N+](=O)[O-])CC1C(c1ccccc1)N2 (stereo not drawn)	inactive: -3.37%
10	COC(=O)OCC12CCC(O1)C1(C)C(=O)OCC21 (stereo not drawn)	inactive: -3.25%
